Data as given in doi:10.1101/2024.01.30.577955.
Results are given in words; binding and its absence hold for the method and conditions named. Binding calls can cover weak binding; strength is not graded here.

Sequences of proteins named here, by UniProt entry; tags and fusion partners are left off. A change or cut given only in a name is not applied to a line headed by its entry.
UniProt Q6P9B9: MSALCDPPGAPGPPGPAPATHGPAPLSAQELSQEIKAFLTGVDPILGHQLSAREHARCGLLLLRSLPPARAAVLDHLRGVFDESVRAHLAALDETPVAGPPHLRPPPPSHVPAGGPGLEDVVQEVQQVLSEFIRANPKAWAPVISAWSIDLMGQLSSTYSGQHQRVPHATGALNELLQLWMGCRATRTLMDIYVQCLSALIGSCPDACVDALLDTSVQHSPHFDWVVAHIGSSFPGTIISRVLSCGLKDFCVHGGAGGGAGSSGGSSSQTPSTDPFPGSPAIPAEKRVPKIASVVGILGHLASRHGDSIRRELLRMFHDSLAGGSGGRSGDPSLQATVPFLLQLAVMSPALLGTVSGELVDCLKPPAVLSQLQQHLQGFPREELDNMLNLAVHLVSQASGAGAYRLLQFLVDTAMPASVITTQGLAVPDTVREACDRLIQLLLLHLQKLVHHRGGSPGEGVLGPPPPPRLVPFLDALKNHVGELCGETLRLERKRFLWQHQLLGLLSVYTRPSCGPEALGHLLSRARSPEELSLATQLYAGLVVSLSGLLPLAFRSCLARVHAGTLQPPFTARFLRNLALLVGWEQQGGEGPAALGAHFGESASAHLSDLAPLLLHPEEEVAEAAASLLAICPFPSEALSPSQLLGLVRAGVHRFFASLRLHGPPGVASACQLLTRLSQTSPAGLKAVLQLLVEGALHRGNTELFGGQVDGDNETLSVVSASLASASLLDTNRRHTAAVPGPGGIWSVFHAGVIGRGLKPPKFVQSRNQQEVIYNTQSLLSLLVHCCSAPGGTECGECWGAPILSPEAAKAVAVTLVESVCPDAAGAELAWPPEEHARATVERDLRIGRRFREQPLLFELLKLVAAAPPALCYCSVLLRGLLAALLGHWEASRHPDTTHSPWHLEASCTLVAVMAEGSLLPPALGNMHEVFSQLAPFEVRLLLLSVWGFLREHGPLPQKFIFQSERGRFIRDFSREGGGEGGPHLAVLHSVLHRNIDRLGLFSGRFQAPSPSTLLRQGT
UniProt Q75QN2: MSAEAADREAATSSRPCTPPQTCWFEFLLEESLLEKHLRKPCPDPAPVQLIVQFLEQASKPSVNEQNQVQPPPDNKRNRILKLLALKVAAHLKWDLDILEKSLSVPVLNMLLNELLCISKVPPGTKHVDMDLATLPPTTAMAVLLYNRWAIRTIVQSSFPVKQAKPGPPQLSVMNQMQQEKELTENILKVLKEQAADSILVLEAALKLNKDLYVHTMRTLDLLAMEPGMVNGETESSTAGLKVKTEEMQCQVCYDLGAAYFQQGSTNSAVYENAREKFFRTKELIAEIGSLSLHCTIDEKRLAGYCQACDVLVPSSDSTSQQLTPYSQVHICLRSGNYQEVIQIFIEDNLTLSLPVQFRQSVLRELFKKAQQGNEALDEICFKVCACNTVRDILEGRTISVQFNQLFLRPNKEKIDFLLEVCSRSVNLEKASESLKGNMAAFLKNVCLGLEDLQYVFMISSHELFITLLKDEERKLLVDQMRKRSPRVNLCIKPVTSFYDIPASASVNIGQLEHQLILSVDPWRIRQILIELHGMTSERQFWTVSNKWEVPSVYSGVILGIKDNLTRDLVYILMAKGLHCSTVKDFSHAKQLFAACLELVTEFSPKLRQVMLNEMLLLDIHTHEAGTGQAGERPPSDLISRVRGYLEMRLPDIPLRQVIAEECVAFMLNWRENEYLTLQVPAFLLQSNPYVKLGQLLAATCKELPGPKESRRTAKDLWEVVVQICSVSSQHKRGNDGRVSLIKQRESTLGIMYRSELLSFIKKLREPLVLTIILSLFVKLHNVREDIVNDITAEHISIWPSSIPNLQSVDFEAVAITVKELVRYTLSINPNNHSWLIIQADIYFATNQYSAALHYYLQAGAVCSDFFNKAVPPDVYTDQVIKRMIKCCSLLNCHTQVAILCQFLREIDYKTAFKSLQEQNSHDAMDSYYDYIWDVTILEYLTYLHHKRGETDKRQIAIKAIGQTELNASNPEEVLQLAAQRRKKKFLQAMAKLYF
UniProt Q96N11: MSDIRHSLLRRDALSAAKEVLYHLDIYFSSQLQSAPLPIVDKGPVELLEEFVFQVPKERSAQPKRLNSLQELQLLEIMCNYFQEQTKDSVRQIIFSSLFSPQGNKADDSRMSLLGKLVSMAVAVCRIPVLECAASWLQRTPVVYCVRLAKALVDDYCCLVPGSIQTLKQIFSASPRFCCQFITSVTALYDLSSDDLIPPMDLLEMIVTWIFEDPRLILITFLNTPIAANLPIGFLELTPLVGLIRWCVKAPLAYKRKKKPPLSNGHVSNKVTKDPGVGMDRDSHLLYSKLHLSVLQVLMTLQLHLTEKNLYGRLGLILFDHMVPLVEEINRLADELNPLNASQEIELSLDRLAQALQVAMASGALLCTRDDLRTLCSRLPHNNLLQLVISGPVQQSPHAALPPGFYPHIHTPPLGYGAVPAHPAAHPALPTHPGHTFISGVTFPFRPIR

Target: INTS5 (UniProt Q6P9B9)
Experiment: cryo-EM structure

INTS8 (from UniProt Q75QN2 1-995)
binding: binds

INTS15 (from UniProt Q96N11 1-449)
binding: binds
